These are yes or no findings as the source states them, for the method shown. In cells and extracts the contact can be indirect. Here binding means that the protein was enriched with, or labelled near, the bait; the list need not be complete. For some assays here: No binding means not detected with the bait. For some assays here: Sequences can lack the tags named with a protein.
How the values were obtained:
Assay in all cases: affinity purification with mass spectrometry; anti-FLAG M2 magnetic beads on ovary lysates of transgenic D. melanogaster expressing the LAP-tagged bait; 3 h at 4 °C; 20 mM Tris-HCl pH 7.5, 150 mM NaCl, 2 mM MgCl2, 10% glycerol, 1 mM DTT, 0.2% IGEPAL CA-630; four biological replicates; enrichment against a control IP
[1] = target: T1, GFP-DmDeadlock (D. melanogaster) (UniProt Q9VIF5)
T1 sequence: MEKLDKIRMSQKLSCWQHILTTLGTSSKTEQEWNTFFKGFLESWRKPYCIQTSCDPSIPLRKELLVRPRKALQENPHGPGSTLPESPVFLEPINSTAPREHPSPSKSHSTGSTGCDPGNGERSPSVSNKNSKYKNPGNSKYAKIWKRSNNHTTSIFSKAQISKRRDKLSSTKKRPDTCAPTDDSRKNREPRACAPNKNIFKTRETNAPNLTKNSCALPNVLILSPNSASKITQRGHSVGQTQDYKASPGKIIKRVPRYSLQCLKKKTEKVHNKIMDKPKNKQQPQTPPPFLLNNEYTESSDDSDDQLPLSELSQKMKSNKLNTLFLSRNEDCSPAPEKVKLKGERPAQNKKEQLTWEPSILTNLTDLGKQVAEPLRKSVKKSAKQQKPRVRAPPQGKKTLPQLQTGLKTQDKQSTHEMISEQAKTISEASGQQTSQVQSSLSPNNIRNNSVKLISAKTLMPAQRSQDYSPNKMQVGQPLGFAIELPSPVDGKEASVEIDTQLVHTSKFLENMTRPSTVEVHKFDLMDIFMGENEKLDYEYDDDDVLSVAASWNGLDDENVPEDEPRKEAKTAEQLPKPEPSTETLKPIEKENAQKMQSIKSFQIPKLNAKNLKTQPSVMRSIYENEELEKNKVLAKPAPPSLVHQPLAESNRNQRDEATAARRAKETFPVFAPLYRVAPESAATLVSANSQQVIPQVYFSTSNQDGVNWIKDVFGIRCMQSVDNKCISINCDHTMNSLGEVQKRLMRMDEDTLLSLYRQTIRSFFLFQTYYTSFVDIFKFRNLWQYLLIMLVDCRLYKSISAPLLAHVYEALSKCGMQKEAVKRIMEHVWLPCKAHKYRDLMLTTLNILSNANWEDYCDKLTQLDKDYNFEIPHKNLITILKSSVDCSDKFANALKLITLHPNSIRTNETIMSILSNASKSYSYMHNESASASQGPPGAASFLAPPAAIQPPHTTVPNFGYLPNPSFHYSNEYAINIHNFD

[2] = target: DmBootlegger-GFP (C-terminally tagged D. melanogaster Bootlegger) (D. melanogaster)
[3] = target: GFP-DsBootlegger (N-terminally tagged D. simulans Bootlegger) (D. simulans)
[4] = target: GFP-DsDeadlock (D. simulans)
[5] = target: GFP-DeDeadlock (D. erecta)

“Bootlegger (endogenous, D. melanogaster ovaries)” was tested, and the binding [1] was “no binding”.

B1: Piwi (endogenous, D. melanogaster ovaries) (protein, UniProt Q9VKM1 1-843)
chain: MADDQGRGRRRPLNEDDSSTSRGSGDGPRVKVFRGSSSGDPRADPRIEASRERRALEEAPRREGGPTERKPWGDQYDYLNTRPAELVSKKGTDGVPVMLQTNFFRLKTKPEWRIVHYHVEFEPSIENPRVRMGVLSNHANLLGSGYLFDGLQLFTTRKFEQEITVLSGKSKLDIEYKISIKFVGFISCAEPRFLQVLNLILRRSMKGLNLELVGRNLFDPRAKIEIREFKMELWPGYETSIRQHEKDILLGTEITHKVMRTETIYDIMRRCSHNPARHQDEVRVNVLDLIVLTDYNNRTYRINDVDFGQTPKSTFSCKGRDISFVEYYLTKYNIRIRDHNQPLLISKNRDKALKTNASELVVLIPELCRVTGLNAEMRSNFQLMRAMSSYTRMNPKQRTDRLRAFNHRLQNTPESVKVLRDWNMELDKNVTEVQGRIIGQQNIVFHNGKVPAGENADWQRHFRDQRMLTTPSDGLDRWAVIAPQRNSHELRTLLDSLYRAASGMGLRIRSPQEFIIYDDRTGTYVRAMDDCVRSDPKLILCLVPNDNAERYSSIKKRGYVDRAVPTQVVTLKTTKNRSLMSIATKIAIQLNCKLGYTPWMIELPLSGLMTIGFDIAKSTRDRKRAYGALIASMDLQQNSTYFSTVTECSAFDVLANTLWPMIAKALRQYQHEHRKLPSRIVFYRDGVSSGSLKQLFEFEVKDIIEKLKTEYARVQLSPPQLAYIVVTRSMNTRFFLNGQNPPPGTIVDDVITLPERYDFYLVSQQVRQGTVSPTSYNVLYSSMGLSPEKMQKLTYKMCHLYYNWSGTTRVPAVCQYAKKLATLVGTNLHSIPQNALEKKFYYL
With B1 the binding [2] was “binds”.

B2: Ago3 (endogenous, D. melanogaster ovaries) (protein, UniProt Q7PLK0 1-867)
chain: MSGRGNLLSLFNKNAGNMGKSISSKDHEIDSGLDFNNSESSGERLLSSHNIETDLITTLQHVNISVGRGRARLIDTLKTDDHTSNQFITSESKENITKKTKGPESEAIASENGLFFPDLIYGSKGSSVNIYCNYLKLTTDESKGVFNYEVRFFPPIDSVHLRIKYLNDHKDKLGGTKTFDGNTLYLPILLPNKMTVFISKAEDVELQIRILYKKKEEMRNCTQLYNILFDRVMKVLNYVKFDRKQFDPSRPKIIPLAKLEVWPGYVTAVDEYKGGLMLCCDVSHRILCQKTVLEMLVDLYQQNVEHYQESARKMLVGNIVLTRYNNRTYKINDICFDQNPTCQFEIKTGCTSYVEYYKQYHNINIKDVNQPLIYSIKKSRGIPAERENLQFCLIPELCYLTGLRDEVRSDNKLMREIATFTRVSPNQRQMALNKFYENVSNTPAAQEILNSWGLSLTNNSNKISGRQMDIEQIYFSKISVSAGRSAEFSKHAVTNEMLKVVHLSKWIIIHLRNYRQAATSLLDNMKQACESLGMNISNPTMISLDHDRIDAYIQALRRNITMNTQMVVCICHNRRDDRYAAIKKICCSEIPIPSQVINAKTLQNDLKIRSVVQKIVLQMNCKLGGSLWTVKIPFKNVMICGIDSYHDPSNRGNSVAAFVASINSSYSQWYSKAVVQTKREEIVNGLSASFEIALKMYRKRNGKLPTNIIIYRDGIGDGQLYTCLNYEIPQFEMVCGNRIKISYIVVQKRINTRIFSGSGIHLENPLPGTVVDQHITKSNMYDFFLVSQLVRQGTVTPTHYVVLRDDCNYGPDIIQKLSYKLCFLYYNWAGTVRIPACCMYAHKLAYLIGQSIQRDVAEALSEKLFYL
In the case of B2, the binding [2] is reported as “binds”.

B3: Deadlock (endogenous, D. melanogaster ovaries) (protein, UniProt Q9VIF5 1-981)
chain: MEKLDKIRMSQKLSCWQHILTTLGTSSKTEQEWNTFFKGFLESWRKPYCIQTSCDPSIPLRKELLVRPRKALQENPHGPGSTLPESPVFLEPINSTAPREHPSPSKSHSTGSTGCDPGNGERSPSVSNKNSKYKNPGNSKYAKIWKRSNNHTTSIFSKAQISKRRDKLSSTKKRPDTCAPTDDSRKNREPRACAPNKNIFKTRETNAPNLTKNSCALPNVLILSPNSASKITQRGHSVGQTQDYKASPGKIIKRVPRYSLQCLKKKTEKVHNKIMDKPKNKQQPQTPPPFLLNNEYTESSDDSDDQLPLSELSQKMKSNKLNTLFLSRNEDCSPAPEKVKLKGERPAQNKKEQLTWEPSILTNLTDLGKQVAEPLRKSVKKSAKQQKPRVRAPPQGKKTLPQLQTGLKTQDKQSTHEMISEQAKTISEASGQQTSQVQSSLSPNNIRNNSVKLISAKTLMPAQRSQDYSPNKMQVGQPLGFAIELPSPVDGKEASVEIDTQLVHTSKFLENMTRPSTVEVHKFDLMDIFMGENEKLDYEYDDDDVLSVAASWNGLDDENVPEDEPRKEAKTAEQLPKPEPSTETLKPIEKENAQKMQSIKSFQIPKLNAKNLKTQPSVMRSIYENEELEKNKVLAKPAPPSLVHQPLAESNRNQRDEATAARRAKETFPVFAPLYRVAPESAATLVSANSQQVIPQVYFSTSNQDGVNWIKDVFGIRCMQSVDNKCISINCDHTMNSLGEVQKRLMRMDEDTLLSLYRQTIRSFFLFQTYYTSFVDIFKFRNLWQYLLIMLVDCRLYKSISAPLLAHVYEALSKCGMQKEAVKRIMEHVWLPCKAHKYRDLMLTTLNILSNANWEDYCDKLTQLDKDYNFEIPHKNLITILKSSVDCSDKFANALKLITLHPNSIRTNETIMSILSNASKSYSYMHNESASASQGPPGAASFLAPPAAIQPPHTTVPNFGYLPNPSFHYSNEYAINIHNFD
B3 was tested, and the binding [3] was “binds”.

B4: Moonshiner (endogenous, D. melanogaster ovaries) (protein, UniProt Q9VYQ0 1-172)
chain: MAKILPTDGIWIPESCSFPEDVMIDMMEGLFRDVPNLTHKEYLALADLQSRWMAKLANRQPESNPLPPKPKKRKKIAPKKQDQPVEEKGSEVDIYDVDDNEMVNNRIYIPRLRSAWRARYFNIMMRAFVIKRGLLNKHINWQILDKIMAAPDAEGQAELQAFVDKVVAGQEM
With B4 the binding [4] was “binds” and the binding [5] was “binds”.

B5: TFIIA-S (endogenous, D. melanogaster ovaries) (protein, UniProt P52656 1-106)
chain: MSYQLYRNTTLGNTLQESLDELIQYGQITPGLAFKVLLQFDKSINNALNQRVKARVTFKAGKLNTYRFCDNVWTLMLNDVEFREVHEIVKVDKVKIVACDGKSGEF
In the case of B5, the binding [4] is reported as “binds” and the binding [5] is reported as “binds”.
